Data as given in PubChem BioAssay AID1259405 (NCATS, 2018)
The deposit covers about 50,000 reagents; this is an unselected part. About 4,000 of them (8%) were called active. 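Mouse siRNA library applied to hamster cells; one well for each siRNA.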 The numbers tell different reagents against one gene apart.

- Test: 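Knock-downs that lift recombinant protein yield in hamster ovary cells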 (primary screen)
- Cells: Chinese hamster CHO-K1 ovary cells with stable secreted eGFP expression
- Reagents: single siRNA against mouse genes, 0.8 pmol siRNA per well (2 µl of 400 nM stock)
- Timing: 3 days
- Measured: 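Percent of the per-plate non-targeting control median for intracellular GFP per well by laser scanning cytometry and for cell viability by ATP luminescence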
- Reading the numbers: GFP, % of control: higher = more GFP per well, higher productivity; viability (ATP), % of control: higher = more viable cells (more ATP)
- Call rule: 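a knock-down is called active if GFP reaches 120% or more of non-targeting control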

E2f2 (E2F transcription factor 2) #1 gave GFP, % of control 82.3; viability (ATP), % of control 72.1; inactive.
Against E2f2 (E2F transcription factor 2) #2 the deposit lists GFP, % of control 122; viability (ATP), % of control 97.8; active.
Against Metap1 (methionyl aminopeptidase 1) #1 the deposit lists GFP, % of control 109; viability (ATP), % of control 80; inactive.
With knock-down of Metap1 (methionyl aminopeptidase 1) #2, the record shows GFP, % of control 94.1; viability (ATP), % of control 89.8; inactive.
Silencing of Metap1 (methionyl aminopeptidase 1) #3 resulted in: GFP, % of control 70.6; viability (ATP), % of control 84.6; inactive.
With knock-down of B330016D10Rik (RIKEN cDNA B330016D10 gene) #1, the record shows GFP, % of control 77.6; viability (ATP), % of control 52.6; inactive.
B330016D10Rik (RIKEN cDNA B330016D10 gene) #2 gave GFP, % of control 83.9; viability (ATP), % of control 107; inactive.
Knock-down of B330016D10Rik (RIKEN cDNA B330016D10 gene) #3 gave: GFP, % of control 52.9; viability (ATP), % of control 61; inactive.
Knock-down of Tec (tec protein tyrosine kinase) #1 gave: GFP, % of control 110; viability (ATP), % of control 89.6; inactive.
With knock-down of Tec (tec protein tyrosine kinase) #2, the screen gave GFP, % of control 59.6; viability (ATP), % of control 56.9; inactive.
Silencing of Tec (tec protein tyrosine kinase) #3 came out at: GFP, % of control 114; viability (ATP), % of control 68; inactive.
Silencing of Ncbp3 (nuclear cap binding subunit 3) #1 came out at: GFP, % of control 71.8; viability (ATP), % of control 98.2; inactive.
With knock-down of Ncbp3 (nuclear cap binding subunit 3) #2, the record shows GFP, % of control 86.2; viability (ATP), % of control 81.6; inactive.
With knock-down of Ncbp3 (nuclear cap binding subunit 3) #3 the results were GFP, % of control 31.1; viability (ATP), % of control 41.7; inactive.
With knock-down of Il18bp (interleukin 18 binding protein) #1, the screen gave GFP, % of control 65.4; viability (ATP), % of control 88.4; inactive.
After knock-down of Il18bp (interleukin 18 binding protein) #2, the record shows GFP, % of control 35.7; viability (ATP), % of control 29.3; inactive.
Il18bp (interleukin 18 binding protein) #3 gave GFP, % of control 41; viability (ATP), % of control 86.9; inactive.
Against Numb (NUMB endocytic adaptor protein) #1, the values are GFP, % of control 125; viability (ATP), % of control 65.6; active.
Numb (NUMB endocytic adaptor protein) #2 gave GFP, % of control 44.6; viability (ATP), % of control 64.2; inactive.
Depletion of Numb (NUMB endocytic adaptor protein) #3 came out at: GFP, % of control 81.3; viability (ATP), % of control 66.7; inactive.
Ndufb4 (NADH:ubiquinone oxidoreductase subunit B4) #1 gave GFP, % of control 67; viability (ATP), % of control 57.2; inactive.
For Ndufb4 (NADH:ubiquinone oxidoreductase subunit B4) #2, the entry reads GFP, % of control 123; viability (ATP), % of control 56.1; active.
Against Mta2 (metastasis-associated gene family, member 2) #1 the deposit lists GFP, % of control 59.6; viability (ATP), % of control 79; inactive.
Against Mta2 (metastasis-associated gene family, member 2) #2 the deposit lists GFP, % of control 62.7; viability (ATP), % of control 65.7; inactive.
Mta2 (metastasis-associated gene family, member 2) #3 showed GFP, % of control 69.9; viability (ATP), % of control 75.1; inactive.
Knock-down of Gm5154 (predicted gene 5154) #1 gave: GFP, % of control 83.1; viability (ATP), % of control 75.7; inactive.
Knock-down of Gm5154 (predicted gene 5154) #2 resulted in: GFP, % of control 89.1; viability (ATP), % of control 71.5; inactive.
Gm5154 (predicted gene 5154) #3 showed GFP, % of control 73; viability (ATP), % of control 56.5; inactive.

Copied from the entries so far (5 entries):
Ndufb4 (NADH:ubiquinone oxidoreductase subunit B4) #1 — GFP, % of control = 67; viability (ATP), % of control = 57.2; activity call = inactive
Ndufb4 (NADH:ubiquinone oxidoreductase subunit B4) #2 — GFP, % of control = 123; viability (ATP), % of control = 56.1; activity call = active
Mta2 (metastasis-associated gene family, member 2) #1 — GFP, % of control = 59.6; viability (ATP), % of control = 79; activity call = inactive
Mta2 (metastasis-associated gene family, member 2) #2 — GFP, % of control = 62.7; viability (ATP), % of control = 65.7; activity call = inactive
Mta2 (metastasis-associated gene family, member 2) #3 — GFP, % of control = 69.9; viability (ATP), % of control = 75.1; activity call = inactive

The results go on:
Depletion of Uba5 (ubiquitin-like modifier activating enzyme 5) #1 came out at: GFP, % of control 60.7; viability (ATP), % of control 79.6; inactive.
For Uba5 (ubiquitin-like modifier activating enzyme 5) #2 the deposit lists GFP, % of control 81.8; viability (ATP), % of control 81.4; inactive.
Knock-down of Uba5 (ubiquitin-like modifier activating enzyme 5) #3 resulted in: GFP, % of control 36.7; viability (ATP), % of control 87.6; inactive.
Silencing of Maco1 (macoilin 1) #1 gave: GFP, % of control 71.9; viability (ATP), % of control 85.5; inactive.
With knock-down of Maco1 (macoilin 1) #2, the screen gave GFP, % of control 77.2; viability (ATP), % of control 64.4; inactive.
Silencing of Maco1 (macoilin 1) #3 came out at: GFP, % of control 90.7; viability (ATP), % of control 83.2; inactive.
Cdkn2d (cyclin dependent kinase inhibitor 2D) #1 showed GFP, % of control 89.1; viability (ATP), % of control 95; inactive.
Cdkn2d (cyclin dependent kinase inhibitor 2D) #2 scored GFP, % of control 99.1; viability (ATP), % of control 90.5; inactive.
Knock-down of Dennd6b (DENN domain containing 6B) #1 resulted in: GFP, % of control 86.6; viability (ATP), % of control 67.9; inactive.
With knock-down of Dennd6b (DENN domain containing 6B) #2, the record shows GFP, % of control 46.5; viability (ATP), % of control 44.7; inactive.
With knock-down of Dennd6b (DENN domain containing 6B) #3, the screen gave GFP, % of control 107; viability (ATP), % of control 70.7; inactive.
Depletion of Scyl3 (SCY1-like 3 (S. cerevisiae)) #1 resulted in: GFP, % of control 59.5; viability (ATP), % of control 79.3; inactive.
After knock-down of Scyl3 (SCY1-like 3 (S. cerevisiae)) #2, the record shows GFP, % of control 80.9; viability (ATP), % of control 94.7; inactive.
Knock-down of Scyl3 (SCY1-like 3 (S. cerevisiae)) #3 gave: GFP, % of control 70.5; viability (ATP), % of control 106; inactive.
For Ccdc157 (coiled-coil domain containing 157) #1, the values are GFP, % of control 150; viability (ATP), % of control 83.8; active.
With knock-down of Ccdc157 (coiled-coil domain containing 157) #2 the results were GFP, % of control 118; viability (ATP), % of control 69.5; inactive.
Ccdc157 (coiled-coil domain containing 157) #3 showed GFP, % of control 111; viability (ATP), % of control 48.4; inactive.
Gulo (gulonolactone (L-) oxidase) #1 gave GFP, % of control 95.2; viability (ATP), % of control 86.6; inactive.
After knock-down of Gulo (gulonolactone (L-) oxidase) #2 the results were GFP, % of control 95.1; viability (ATP), % of control 84.7; inactive.
Knock-down of Gulo (gulonolactone (L-) oxidase) #3 resulted in: GFP, % of control 35.8; viability (ATP), % of control 51.1; inactive.
Tmem209 (transmembrane protein 209) #1 scored GFP, % of control 51.5; viability (ATP), % of control 61.3; inactive.
With knock-down of Tmem209 (transmembrane protein 209) #2 the results were GFP, % of control 50.9; viability (ATP), % of control 48.3; inactive.
For Tmem209 (transmembrane protein 209) #3, the values are GFP, % of control 65.7; viability (ATP), % of control 75.7; inactive.
Ezh1 (enhancer of zeste 1 polycomb repressive complex 2 subunit) #1 gave GFP, % of control 69.8; viability (ATP), % of control 82; inactive.
Ezh1 (enhancer of zeste 1 polycomb repressive complex 2 subunit) #2 scored GFP, % of control 82.8; viability (ATP), % of control 60.4; inactive.
Depletion of Ezh1 (enhancer of zeste 1 polycomb repressive complex 2 subunit) #3 came out at: GFP, % of control 59.8; viability (ATP), % of control 79.6; inactive.
